Results reported in the supplement of paper PMC12823440, “Inhibitors supercharge kinase turnover through native proteolytic circuits” (Nature, 2025).
The other results are listed elsewhere or left out. The calls rarely recur for the same compound in another form.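 In K562 cells expressing nanoluciferase-fused kinases, luminescence was recorded at 4 h intervals between 2 and 18 h, normalized as percent of control with DMSO at 100% and a positive control at 0%. A significant (2 sigma) signal drop marks a time point as decreased. The authors' rule for a hit is not shown and takes in more than the number of time points.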

Sequences of proteins named here, by UniProt entry; tags and fusion partners are left off. A change or cut given only in a name is not applied to a line headed by its entry.
UniProt Q9UM73: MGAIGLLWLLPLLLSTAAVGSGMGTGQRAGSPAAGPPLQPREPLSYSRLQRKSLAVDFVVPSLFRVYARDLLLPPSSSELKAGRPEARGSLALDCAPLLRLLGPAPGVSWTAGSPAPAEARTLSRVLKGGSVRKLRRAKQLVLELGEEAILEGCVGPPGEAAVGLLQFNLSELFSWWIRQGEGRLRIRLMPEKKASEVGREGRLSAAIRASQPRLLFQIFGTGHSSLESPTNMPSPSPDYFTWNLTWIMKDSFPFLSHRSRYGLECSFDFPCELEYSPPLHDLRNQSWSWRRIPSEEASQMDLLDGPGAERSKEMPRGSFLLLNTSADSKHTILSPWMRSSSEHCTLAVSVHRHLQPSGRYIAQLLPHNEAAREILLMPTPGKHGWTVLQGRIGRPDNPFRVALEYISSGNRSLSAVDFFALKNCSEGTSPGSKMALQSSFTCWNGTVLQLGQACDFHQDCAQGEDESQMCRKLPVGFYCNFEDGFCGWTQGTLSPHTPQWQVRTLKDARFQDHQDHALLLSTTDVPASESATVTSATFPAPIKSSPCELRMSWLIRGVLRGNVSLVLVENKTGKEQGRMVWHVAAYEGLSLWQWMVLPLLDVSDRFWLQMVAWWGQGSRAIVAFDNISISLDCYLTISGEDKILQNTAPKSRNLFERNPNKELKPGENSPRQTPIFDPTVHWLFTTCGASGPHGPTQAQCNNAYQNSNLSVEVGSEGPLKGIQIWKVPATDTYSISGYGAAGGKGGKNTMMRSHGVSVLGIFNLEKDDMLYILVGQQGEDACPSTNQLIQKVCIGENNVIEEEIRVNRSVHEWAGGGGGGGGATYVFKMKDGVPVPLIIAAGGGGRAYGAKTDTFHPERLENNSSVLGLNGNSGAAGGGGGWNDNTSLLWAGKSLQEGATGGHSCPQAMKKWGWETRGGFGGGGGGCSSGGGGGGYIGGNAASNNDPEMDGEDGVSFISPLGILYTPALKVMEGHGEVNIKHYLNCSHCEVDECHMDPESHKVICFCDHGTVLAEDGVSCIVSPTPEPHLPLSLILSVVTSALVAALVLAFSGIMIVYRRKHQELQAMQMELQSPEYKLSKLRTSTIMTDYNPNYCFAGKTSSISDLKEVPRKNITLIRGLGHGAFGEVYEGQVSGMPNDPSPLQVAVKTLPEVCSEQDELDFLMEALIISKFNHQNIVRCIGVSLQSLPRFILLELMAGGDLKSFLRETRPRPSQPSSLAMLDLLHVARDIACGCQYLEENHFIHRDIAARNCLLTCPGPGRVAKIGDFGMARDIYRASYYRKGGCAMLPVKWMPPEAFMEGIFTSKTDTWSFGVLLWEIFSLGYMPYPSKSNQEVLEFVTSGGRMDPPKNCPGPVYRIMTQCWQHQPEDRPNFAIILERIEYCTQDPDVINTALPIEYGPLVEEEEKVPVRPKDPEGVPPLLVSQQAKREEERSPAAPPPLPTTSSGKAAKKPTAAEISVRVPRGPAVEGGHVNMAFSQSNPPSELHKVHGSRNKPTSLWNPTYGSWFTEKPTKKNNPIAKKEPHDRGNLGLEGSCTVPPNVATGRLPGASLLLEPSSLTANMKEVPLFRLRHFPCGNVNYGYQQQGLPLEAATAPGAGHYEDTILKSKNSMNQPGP
UniProt O14965: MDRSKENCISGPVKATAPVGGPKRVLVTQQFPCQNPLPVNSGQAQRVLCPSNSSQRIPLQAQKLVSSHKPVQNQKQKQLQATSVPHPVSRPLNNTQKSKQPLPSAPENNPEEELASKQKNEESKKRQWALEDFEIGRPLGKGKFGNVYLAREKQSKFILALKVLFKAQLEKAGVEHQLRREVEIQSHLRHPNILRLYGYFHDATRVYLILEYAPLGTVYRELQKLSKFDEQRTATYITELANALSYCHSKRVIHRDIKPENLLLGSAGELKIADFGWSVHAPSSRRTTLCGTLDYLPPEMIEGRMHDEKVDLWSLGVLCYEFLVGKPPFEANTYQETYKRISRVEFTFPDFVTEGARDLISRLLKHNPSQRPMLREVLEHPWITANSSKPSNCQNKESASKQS
UniProt Q96GD4, whole entry: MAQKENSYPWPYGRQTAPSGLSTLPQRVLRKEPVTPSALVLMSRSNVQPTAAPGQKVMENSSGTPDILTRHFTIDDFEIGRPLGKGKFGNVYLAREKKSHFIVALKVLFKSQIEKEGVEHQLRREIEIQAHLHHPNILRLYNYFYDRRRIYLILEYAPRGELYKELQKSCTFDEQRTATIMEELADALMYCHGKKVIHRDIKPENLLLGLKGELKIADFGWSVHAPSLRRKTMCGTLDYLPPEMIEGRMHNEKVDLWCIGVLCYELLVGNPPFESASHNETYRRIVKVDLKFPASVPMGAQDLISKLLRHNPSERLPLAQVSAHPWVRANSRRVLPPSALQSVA
UniProt P51813: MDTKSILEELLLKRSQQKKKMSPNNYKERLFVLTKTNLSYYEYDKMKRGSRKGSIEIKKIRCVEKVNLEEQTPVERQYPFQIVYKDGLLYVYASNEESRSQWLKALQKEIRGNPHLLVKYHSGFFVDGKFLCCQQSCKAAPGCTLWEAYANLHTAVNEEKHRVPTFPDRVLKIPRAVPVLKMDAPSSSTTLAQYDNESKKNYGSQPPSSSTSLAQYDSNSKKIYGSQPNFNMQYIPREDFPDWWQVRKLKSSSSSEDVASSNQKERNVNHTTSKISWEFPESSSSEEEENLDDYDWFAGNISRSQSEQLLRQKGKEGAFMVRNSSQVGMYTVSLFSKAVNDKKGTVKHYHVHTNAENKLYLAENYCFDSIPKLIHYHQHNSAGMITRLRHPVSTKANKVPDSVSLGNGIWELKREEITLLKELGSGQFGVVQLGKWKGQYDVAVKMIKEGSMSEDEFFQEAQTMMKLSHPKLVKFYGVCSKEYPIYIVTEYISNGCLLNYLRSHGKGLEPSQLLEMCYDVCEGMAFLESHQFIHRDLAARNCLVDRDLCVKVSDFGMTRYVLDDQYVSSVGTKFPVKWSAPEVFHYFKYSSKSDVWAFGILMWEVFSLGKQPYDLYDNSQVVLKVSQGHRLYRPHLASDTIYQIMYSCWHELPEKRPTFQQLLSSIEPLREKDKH
UniProt Q9UQM7, whole entry: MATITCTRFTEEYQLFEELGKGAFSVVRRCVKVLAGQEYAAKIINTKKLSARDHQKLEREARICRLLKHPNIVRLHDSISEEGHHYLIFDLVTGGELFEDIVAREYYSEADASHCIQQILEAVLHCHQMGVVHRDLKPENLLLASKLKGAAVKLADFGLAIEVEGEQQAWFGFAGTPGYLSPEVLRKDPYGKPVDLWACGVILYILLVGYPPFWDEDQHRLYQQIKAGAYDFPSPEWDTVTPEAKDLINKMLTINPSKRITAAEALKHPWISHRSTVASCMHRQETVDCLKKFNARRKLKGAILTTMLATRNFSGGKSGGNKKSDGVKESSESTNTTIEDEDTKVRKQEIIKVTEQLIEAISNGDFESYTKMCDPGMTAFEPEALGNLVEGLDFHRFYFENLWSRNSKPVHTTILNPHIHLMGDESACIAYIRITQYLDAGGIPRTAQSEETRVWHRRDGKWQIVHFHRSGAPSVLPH
UniProt Q15131: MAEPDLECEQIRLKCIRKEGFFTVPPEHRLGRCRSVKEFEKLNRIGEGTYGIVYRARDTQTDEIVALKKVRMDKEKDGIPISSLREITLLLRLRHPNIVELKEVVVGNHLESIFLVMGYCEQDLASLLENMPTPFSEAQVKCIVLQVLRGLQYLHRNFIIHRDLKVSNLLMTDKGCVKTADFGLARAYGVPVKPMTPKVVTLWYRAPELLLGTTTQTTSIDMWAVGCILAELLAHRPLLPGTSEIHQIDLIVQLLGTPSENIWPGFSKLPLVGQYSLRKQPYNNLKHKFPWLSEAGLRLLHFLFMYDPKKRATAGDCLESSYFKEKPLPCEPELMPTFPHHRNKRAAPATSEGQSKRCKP
UniProt Q00526: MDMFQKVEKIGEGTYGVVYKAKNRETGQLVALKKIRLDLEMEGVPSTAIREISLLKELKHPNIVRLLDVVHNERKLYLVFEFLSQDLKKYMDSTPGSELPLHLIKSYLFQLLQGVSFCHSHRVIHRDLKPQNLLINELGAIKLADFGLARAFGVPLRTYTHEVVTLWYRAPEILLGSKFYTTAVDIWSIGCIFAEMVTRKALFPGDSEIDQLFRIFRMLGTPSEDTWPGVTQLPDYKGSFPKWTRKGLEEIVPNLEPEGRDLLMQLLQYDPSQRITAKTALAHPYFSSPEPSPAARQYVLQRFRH
UniProt Q00534, whole entry: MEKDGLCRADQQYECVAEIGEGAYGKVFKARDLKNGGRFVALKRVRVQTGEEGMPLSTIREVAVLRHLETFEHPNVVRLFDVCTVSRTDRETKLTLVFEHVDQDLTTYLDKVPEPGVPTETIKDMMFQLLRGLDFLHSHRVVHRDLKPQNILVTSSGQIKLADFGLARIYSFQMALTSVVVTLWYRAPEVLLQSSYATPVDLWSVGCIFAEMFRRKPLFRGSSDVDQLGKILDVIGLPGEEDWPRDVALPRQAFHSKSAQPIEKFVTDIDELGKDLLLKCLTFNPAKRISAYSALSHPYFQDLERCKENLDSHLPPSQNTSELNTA
UniProt O96017, whole entry: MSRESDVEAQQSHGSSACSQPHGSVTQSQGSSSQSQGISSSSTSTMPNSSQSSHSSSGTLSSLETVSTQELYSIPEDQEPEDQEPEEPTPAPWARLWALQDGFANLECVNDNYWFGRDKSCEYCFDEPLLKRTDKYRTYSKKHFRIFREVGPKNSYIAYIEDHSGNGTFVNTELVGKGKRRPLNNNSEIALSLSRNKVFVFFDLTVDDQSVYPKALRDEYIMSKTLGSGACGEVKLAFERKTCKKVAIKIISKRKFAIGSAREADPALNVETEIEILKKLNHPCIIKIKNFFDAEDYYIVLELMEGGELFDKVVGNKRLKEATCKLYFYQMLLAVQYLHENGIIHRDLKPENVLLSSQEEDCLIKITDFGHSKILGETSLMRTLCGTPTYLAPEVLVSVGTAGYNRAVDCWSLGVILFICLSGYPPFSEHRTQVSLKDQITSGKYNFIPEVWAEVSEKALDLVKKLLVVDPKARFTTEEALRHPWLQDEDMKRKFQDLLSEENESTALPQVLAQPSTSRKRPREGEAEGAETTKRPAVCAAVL
UniProt P07333, whole entry: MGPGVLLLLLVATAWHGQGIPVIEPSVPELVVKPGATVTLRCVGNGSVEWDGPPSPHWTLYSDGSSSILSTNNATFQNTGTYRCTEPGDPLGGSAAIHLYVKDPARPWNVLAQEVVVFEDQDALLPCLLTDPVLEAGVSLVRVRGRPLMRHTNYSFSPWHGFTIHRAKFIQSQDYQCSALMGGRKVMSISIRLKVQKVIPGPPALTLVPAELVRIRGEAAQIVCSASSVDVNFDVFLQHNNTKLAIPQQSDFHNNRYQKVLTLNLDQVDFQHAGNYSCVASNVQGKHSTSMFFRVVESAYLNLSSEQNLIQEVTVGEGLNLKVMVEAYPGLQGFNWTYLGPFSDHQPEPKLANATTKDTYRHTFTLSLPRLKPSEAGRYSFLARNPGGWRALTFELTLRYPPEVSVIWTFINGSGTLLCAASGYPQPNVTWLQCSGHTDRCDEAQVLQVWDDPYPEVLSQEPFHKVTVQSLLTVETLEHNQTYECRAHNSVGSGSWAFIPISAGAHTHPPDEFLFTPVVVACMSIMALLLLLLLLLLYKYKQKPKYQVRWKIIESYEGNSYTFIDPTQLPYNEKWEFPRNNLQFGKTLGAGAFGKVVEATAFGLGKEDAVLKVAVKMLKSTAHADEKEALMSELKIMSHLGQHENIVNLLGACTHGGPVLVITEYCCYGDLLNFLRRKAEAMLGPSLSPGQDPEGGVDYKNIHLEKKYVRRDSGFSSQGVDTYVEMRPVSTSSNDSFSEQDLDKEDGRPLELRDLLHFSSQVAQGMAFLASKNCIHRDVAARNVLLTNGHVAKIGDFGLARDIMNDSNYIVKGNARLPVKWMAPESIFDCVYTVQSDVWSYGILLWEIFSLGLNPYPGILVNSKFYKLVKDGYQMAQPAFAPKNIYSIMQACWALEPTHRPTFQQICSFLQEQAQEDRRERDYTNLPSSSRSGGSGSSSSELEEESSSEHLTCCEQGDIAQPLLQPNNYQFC
UniProt P41240: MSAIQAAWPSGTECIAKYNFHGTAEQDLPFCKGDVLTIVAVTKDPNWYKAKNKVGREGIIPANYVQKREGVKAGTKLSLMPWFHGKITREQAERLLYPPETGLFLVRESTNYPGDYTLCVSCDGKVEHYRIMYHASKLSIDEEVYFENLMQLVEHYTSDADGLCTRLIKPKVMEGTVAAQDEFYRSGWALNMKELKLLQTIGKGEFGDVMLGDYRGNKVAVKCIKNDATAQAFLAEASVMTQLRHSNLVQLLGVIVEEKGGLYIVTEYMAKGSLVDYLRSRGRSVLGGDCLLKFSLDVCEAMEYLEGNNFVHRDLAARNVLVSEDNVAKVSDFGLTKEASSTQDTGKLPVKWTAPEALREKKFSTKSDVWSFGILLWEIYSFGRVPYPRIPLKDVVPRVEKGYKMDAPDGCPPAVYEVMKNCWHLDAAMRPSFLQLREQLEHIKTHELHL

Experiments:
Assay in all cases: number of time points (of 5) at which kinase-Nluc abundance scored as decreased, DMSO-normalised (count); higher = more persistent destabilization
Conditions in all cases: K562; 2-18 h
[1] = target: ALK (UniProt Q9UM73)
[2] = target: ARAF (UniProt P10398)
[3] = target: AURKA (UniProt O14965)
[4] = target: AURKB (UniProt Q96GD4)
[5] = target: AURKC (UniProt Q9UQB9)
[6] = target: BLK (UniProt P51451)
[7] = target: BMX (UniProt P51813)
[8] = target: BRAF (UniProt P15056)
[9] = tested on: BRAF_V600E
[10] = target: BTK (UniProt Q06187)
[11] = target: CAMK2A (UniProt Q9UQM7)
[12] = target: CAMK2G (UniProt Q13555)
[13] = target: CDK10 (UniProt Q15131)
[14] = target: CDK2 (UniProt P24941)
[15] = target: CDK3 (UniProt Q00526)
[16] = target: CDK5 (UniProt Q00535)
[17] = target: CDK6 (UniProt Q00534)
[18] = target: CHEK2 (UniProt O96017)
[19] = target: CSF1R (UniProt P07333)
[20] = target: CSK (UniProt P41240)

**Q.** What does the source list for COc1ccc(-c2ccc3c(N4CCOC[C@@H]4C)nc(N4CCOC[C@@H]4C)nc3n2)cc1CO (2.5 µM)?
**A.** number of time points [1]: 3; number of time points [2]: 0; number of time points [3]: 4; number of time points [4]: 4; number of time points [5]: 0; number of time points [6]: 3; number of time points [7]: 3; number of time points [8]: 1; number of time points [9]: 4; number of time points [10]: 0; number of time points [11]: 1; number of time points [12]: 3; number of time points [13]: 0; number of time points [14]: 0; number of time points [15]: 0; number of time points [16]: 0; number of time points [17]: 0; number of time points [18]: 2; number of time points [19]: 4; number of time points [20]: 0

**Q.** Which results are given for CC(C)=CC(=O)CCC(=O)N1CCN(Cc2cc3nc(-c4cccc5[nH]ncc45)nc(N4CCOCC4)c3s2)CC1 (10 µM)?
**A.** number of time points [1]: 0; number of time points [2]: 0; number of time points [3]: 0; number of time points [4]: 0; number of time points [5]: 0; number of time points [6]: 0; number of time points [7]: 4; number of time points [8]: 5; number of time points [9]: 0; number of time points [10]: 0; number of time points [11]: 0; number of time points [12]: 0; number of time points [13]: 0; number of time points [14]: 0; number of time points [15]: 0; number of time points [16]: 0; number of time points [17]: 5; number of time points [18]: 0; number of time points [19]: 0; number of time points [20]: 0

**Q.** Which “number of time points” value [1] does the source give for O=C(NCCO)c1ccc2c(c1)nc(Nc1cccc(Cl)c1)c1ccncc12 [CK2 inhibitor 2] (10 µM) here?
**A.** 0

**Q.** What about the “number of time points” value [2] of the same compound?
**A.** 0

**Q.** What about the “number of time points” value [3] of the same compound?
**A.** 0

**Q.** What about the “number of time points” value [4] of the same compound?
**A.** 0

**Q.** And the “number of time points” value [5]?
**A.** 0

**Q.** And the “number of time points” value [6]?
**A.** 0

**Q.** What about the “number of time points” value [7] of the same compound?
**A.** 0

**Q.** What about the “number of time points” value [8] of the same compound?
**A.** 0

**Q.** And the “number of time points” value [9]?
**A.** 0

**Q.** What about the “number of time points” value [10] of the same compound?
**A.** 0

**Q.** And the “number of time points” value [11]?
**A.** 0

**Q.** And the “number of time points” value [12]?
**A.** 0

**Q.** What about the “number of time points” value [13] of the same compound?
**A.** 0

**Q.** And the “number of time points” value [14]?
**A.** 0

**Q.** And the “number of time points” value [15]?
**A.** 0

**Q.** And the “number of time points” value [16]?
**A.** 0

**Q.** What about the “number of time points” value [17] of the same compound?
**A.** 0

**Q.** What about the “number of time points” value [18] of the same compound?
**A.** 0

**Q.** And the “number of time points” value [19]?
**A.** 0

**Q.** What about the “number of time points” value [20] of the same compound?
**A.** 0
